Test results from paper PMC4632396.
No constants are given. Whether binding was seen depends on the method and setting. In cells and extracts the contact can be indirect.

Protein sequences, listed by entry. Tags and fused reporters are not part of them. Lines headed by an entry give the natural chain unless they say otherwise; changes in a name come on top. Residues count along the entry.
UniProt Q10589, residues 1-161: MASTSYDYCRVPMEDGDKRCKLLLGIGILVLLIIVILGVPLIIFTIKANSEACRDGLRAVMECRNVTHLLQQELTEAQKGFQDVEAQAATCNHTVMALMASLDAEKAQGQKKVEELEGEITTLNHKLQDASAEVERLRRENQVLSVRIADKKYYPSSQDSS
UniProt Q05320: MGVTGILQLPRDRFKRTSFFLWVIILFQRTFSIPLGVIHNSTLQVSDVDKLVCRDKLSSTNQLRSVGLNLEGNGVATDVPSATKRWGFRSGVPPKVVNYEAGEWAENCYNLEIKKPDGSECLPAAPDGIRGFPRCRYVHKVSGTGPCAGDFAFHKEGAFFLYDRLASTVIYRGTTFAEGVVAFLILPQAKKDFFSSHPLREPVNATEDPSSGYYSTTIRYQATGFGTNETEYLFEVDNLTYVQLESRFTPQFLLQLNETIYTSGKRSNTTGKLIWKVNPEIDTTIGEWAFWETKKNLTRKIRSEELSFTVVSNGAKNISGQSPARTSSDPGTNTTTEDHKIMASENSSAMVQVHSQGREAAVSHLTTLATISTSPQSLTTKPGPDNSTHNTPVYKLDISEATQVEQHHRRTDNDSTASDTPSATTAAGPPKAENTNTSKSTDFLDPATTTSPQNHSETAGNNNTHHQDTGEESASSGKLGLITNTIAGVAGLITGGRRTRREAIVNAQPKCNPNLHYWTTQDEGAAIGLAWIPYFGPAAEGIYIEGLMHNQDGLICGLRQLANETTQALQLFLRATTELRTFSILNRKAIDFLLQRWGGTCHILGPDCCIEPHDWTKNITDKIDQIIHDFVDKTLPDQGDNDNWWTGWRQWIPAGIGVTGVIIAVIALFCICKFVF

Molecular target: human tetherin (human) (UniProt Q10589)
Test: co-IP

For “mature full-length Ebola virus glycoprotein (EboGP cleaved into GP1 and GP2) (from UniProt Q05320) (complex)”, the binding was “no binding”.
